According to paper PMC10859387:
Results are given in words; binding and its absence hold for the method and conditions named. Binding seen in cells or lysates may run through a third protein. Some binding calls cover weakened binding; strength is not graded here. Tags and fused reporters may be left off the sequences shown.

Amino acid sequences for entries named in this document (tags omitted).
UniProt Q9WTL8: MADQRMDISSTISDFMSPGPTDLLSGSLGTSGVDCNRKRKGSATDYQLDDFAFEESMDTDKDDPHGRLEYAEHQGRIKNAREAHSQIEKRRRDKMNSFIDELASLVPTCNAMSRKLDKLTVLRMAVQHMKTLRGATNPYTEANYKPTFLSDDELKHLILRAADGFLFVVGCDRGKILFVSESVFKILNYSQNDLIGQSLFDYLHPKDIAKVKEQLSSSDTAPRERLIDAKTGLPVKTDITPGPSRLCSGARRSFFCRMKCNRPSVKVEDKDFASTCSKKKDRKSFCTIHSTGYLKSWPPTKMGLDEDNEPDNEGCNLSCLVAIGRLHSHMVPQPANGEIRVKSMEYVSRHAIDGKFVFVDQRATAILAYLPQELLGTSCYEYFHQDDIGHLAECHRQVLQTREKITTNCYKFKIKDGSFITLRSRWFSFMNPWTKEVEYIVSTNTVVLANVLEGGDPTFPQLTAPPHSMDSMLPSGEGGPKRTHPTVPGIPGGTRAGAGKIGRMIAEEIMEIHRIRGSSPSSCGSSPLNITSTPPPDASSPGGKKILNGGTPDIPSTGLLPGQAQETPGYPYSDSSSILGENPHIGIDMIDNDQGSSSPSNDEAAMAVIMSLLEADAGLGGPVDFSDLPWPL
UniProt P47806: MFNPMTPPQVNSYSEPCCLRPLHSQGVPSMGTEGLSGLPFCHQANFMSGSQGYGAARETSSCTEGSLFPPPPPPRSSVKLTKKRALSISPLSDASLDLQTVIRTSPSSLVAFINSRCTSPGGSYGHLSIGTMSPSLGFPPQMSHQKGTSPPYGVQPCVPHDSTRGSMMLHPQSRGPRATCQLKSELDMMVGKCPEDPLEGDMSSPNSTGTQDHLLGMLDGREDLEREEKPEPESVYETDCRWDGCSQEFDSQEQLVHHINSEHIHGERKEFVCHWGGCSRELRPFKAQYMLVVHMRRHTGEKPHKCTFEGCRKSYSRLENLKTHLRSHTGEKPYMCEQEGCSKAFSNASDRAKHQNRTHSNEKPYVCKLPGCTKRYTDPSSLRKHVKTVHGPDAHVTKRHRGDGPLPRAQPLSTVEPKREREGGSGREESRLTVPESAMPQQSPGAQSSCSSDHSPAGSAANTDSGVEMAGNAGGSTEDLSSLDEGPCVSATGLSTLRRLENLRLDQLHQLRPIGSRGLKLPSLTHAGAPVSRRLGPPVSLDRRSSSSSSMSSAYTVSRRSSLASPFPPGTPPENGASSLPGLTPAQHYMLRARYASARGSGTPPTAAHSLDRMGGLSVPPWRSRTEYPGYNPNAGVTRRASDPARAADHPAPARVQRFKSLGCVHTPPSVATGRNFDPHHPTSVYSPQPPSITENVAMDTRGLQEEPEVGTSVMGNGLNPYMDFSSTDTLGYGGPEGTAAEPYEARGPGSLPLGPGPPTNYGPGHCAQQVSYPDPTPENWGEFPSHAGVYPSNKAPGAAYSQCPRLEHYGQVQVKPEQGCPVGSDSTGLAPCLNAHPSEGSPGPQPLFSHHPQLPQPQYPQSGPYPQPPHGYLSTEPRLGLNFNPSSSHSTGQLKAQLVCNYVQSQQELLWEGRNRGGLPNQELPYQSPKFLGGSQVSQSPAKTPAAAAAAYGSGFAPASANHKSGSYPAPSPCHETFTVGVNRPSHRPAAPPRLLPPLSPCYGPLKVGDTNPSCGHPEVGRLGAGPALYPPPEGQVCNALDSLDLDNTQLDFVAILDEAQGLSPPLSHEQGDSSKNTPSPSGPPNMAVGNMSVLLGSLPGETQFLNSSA

Biological target: T1, Sufu (inhibitor of fused) (mouse (endogenous in Hepa 1–6)) (UniProt Q9Z0P7)
T1 sequence: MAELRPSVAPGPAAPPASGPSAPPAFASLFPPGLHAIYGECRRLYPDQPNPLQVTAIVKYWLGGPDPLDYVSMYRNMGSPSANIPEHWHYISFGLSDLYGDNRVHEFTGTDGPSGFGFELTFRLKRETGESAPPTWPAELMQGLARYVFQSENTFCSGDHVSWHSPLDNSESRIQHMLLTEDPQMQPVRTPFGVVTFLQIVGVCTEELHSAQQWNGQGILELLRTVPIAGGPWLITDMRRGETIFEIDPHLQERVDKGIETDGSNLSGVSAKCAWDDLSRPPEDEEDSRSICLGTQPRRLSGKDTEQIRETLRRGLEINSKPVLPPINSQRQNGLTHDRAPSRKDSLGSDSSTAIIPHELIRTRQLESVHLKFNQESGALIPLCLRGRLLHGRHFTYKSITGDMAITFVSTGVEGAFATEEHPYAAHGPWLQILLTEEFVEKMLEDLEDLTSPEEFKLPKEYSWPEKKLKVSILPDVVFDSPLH
Test: co-IP; Hepa 1–6 cells with or without 400 pg/μL Shh for 24 h; whole-cell extracts in IP lysis buffer (20 mM Tris-HCl pH 7.5, 137 mM NaCl, 5 mM EDTA, 1% NP-40, 10% glycerol); antibody overnight at 4 °C, protein A/G plus agarose beads, western blot; which protein was precipitated is not told

binding | Substance
binds | Bmal1 (brain and muscle ARNT-like 1) (from UniProt Q9WTL8 1-632)
binds | Gli1 (from UniProt P47806 1-1111)
